Reference: patent US10561749B2, “Nuclear medicine diagnostic imaging agent” (Kyoto University, priority 2015, dated 2020)
Some entries share one result that the patent states for a list of compounds. For at least one compound, name, drawing or mass did not settle the structure.

How the values were obtained:
EGFR (L858R) = biological target: T1, EGFR (L858R) (Homo sapiens, UniProt P00533, L858R); assay: EGFR tyrosine kinase inhibiting activity, ADP-Glo (EGFR (L858R) Kinase Enzyme System); format: biochemical; settings: summary of Table 1
T1 construct: purchased Promega V5322
Experimental: (§1) Four types of EGFR Kinase Enzyme Systems, specifically, EGFR Kinase Enzyme System (Catalog No. V3831), EGFR (L858R) Kinase Enzyme System (Catalog No. V5322), EGFR (T790M) Kinase Enzyme System (Catalog No. V4506), and EGFR (T790M, L858R) Kinase Enzyme System (Catalog No. V5324) were used (all of them were manufactured by Promega).
(§2) The measurement was carried out according to the Promega protocol applications guide. That is, a buffer solution (40 mM Tris-HCl, pH 7.5, 20 mM MgCl2, 50 μM DTT and 0.1 mg/mL BSA) was used as a dilute solution. The concentration of each compound started at 20 μM (the final concentration, including 1% DMSO) with 5-fold dilutions with the buffer solution. Thus, ten concentrations of each compound were prepared. Then, 2 μL of each concentration of each compound thus obtained was added to each well of a 384-well plate. Furthermore, 4 μL (20 ng) of an EGFR Kinase […] that came with each EGFR Kinase Enzyme System was added to each well, which then was incubated at room temperature for ten minutes. Subsequently, 4 μL of mixed solution of ATP (10 μM) and Poly(Glu, Tyr) (2 μg) substrate was added to each well, which then was incubated at room temperature for one hour. Then, 10 μL of ADP-Glo™ Reagent (ADP-Glo™ Kinase Assay, Promega) was added to each well, which then was reacted at room temperature for 40 minutes. Furthermore, 20 μL of Kinase Detection Reagent (ADP-Glo™ Kinase Assay, Promega) was added to each well, which then was reacted at room temperature for one hour. […] From the data thus obtained, dose-response curves and IC50 were calculated using GraphPad Prism 5 (GraphPad Software, Inc.). In Table 1 below, WT indicates the measurement results obtained with the EGFR Kinase Enzyme System, L858R indicates the measurement results obtained with the EGFR (L858R) Kinase Enzyme System, T790M indicates the measurement results obtained with the EGFR (T790M) Kinase Enzyme System, and DM indicates the measurement results obtained with the EGFR (T790M, L858R) Kinase Enzyme System.

EGFR (T790M, L858R) = biological target: T2, EGFR (T790M, L858R) (Homo sapiens, UniProt P00533, L858R/T790M); assay: EGFR tyrosine kinase inhibiting activity, ADP-Glo (EGFR (T790M, L858R) Kinase Enzyme System, DM); format: biochemical; settings: summary of Table 1
T2 construct: purchased Promega V5324
Experimental: as §1, §2

| Structure (SMILES) | binding affinity to the L858R-mutated EGFR (in words) (EGFR (L858R)) | binding affinity to the L858R/T790M-mutated EGFR (DM) (in words) (EGFR (T790M, L858R)) |
| --- | --- | --- |
| O=C(CN1CCN(CCF)CC1)N1CCc2c(sc3ncnc(N[C@H](CO)c4ccccc4)c23)C1 [P3, (S)-2-(4-(2-Fluoroethyl)piperazin-1-yl)-1-(4-((2-hydroxy-1phenylethyl)amino)-5,8-dihydropyrido[4′,3′:4,5]thieno[2,3-d]pyrimidin-7(6H)-yl)ethan-1-one] | relatively high binding affinity | no binding affinity |
| O=C(CCN1CCN(CCF)CC1)N1CCc2c(sc3ncnc(N[C@H](CO)c4ccccc4)c23)C1 [P4, (S)-3-(4-(2-Fluoroethyl)piperazin-1-yl)-1-(4-((2-hydroxy-1phenylethyl)amino)-5,8-dihydropyrido[4′,3′:4,5]thieno[2,3-d]pyrimidin-7(6H)-yl)propan-1-one] | relatively high binding affinity | no binding affinity |
| O=C(/C=C/CN1CCN(CCOCCOCCOCCF)CC1)N1CCc2c(sc3ncnc(N[C@H](CO)c4ccccc4)c23)C1 [P10] | relatively high binding affinity | no binding affinity |
| O=C(/C=C/CN1CCN(CCF)CC1)N1CCc2c(sc3ncnc(N[C@H](CO)c4ccccc4)c23)C1 [P2, (S,E)-4-(4-(2-Fluoroethyl)piperazin-1-yl)-1-(4-((2-hydroxy-1phenylethyl)amino)-5,8-dihydropyrido[4′,3′:4,5]thieno[2,3-d]pyrimidin-7(6H)-yl)but-2-en-1-one] | relatively high binding affinity | no binding affinity |
| OC[C@@H](Nc1ncnc2sc3c(c12)CCN(CCF)C3)c1ccccc1 [P1] | relatively high binding affinity | no binding affinity |
| COC[C@@H](Nc1ncnc2sc3c(c12)CCN(C(=O)/C=C/CN1CCN(CCF)CC1)C3)c1ccccc1 [P7] | relatively high binding affinity | no binding affinity |
| C[C@@H](Nc1ncnc2sc3c(c12)CCN(C(=O)/C=C/CN1CCN(CCF)CC1)C3)c1ccccc1 [P5, (R,E)-4-(4-(2-Fluoroethyl)piperazin-1-yl)-1-(4-((1-phenylethyl)amino)-5,8-dihydropyrido[4′,3′:4,5]thieno[2,3-d]pyrimidin-7(6H)-yl)but-2-en-1-one] | relatively high binding affinity | no binding affinity |
| O=C(/C=C/CN1CCN(CCF)CC1)N1CCc2c(sc3ncnc(O[C@@H](c4ccccc4)C(F)(F)F)c23)C1 [P6, (S,E)-4-(4-(2-Fluoroethyl)piperazin-1-yl)-1-(4-(2,2,2-trifluoro-1-phenylethoxy)-5,8-dihydropyrido[4′,3′:4,5]thieno[2,3-d]pyrimidin-7 (6H)-yl)but-2-en-1-one] | relatively high binding affinity | no binding affinity |
| O=C(/C=C/CN1CCN(CCOCCF)CC1)N1CCc2c(sc3ncnc(N[C@H](CO)c4ccccc4)c23)C1 [P9] | relatively high binding affinity | no binding affinity |
